Assay results from US20190137523A1 (Hoffmann-La Roche, published 2019).
No constants are given. Whether binding was seen depends on the method and setting. Some results given as binding are weak or reduced against the parent protein; the word gives no strength.

Assays:
[1] = target: T1, VEGF-A 121 (Peprotech), dimeric (human, UniProt P15692-9 27-147); test: Biacore T200 epitope binning on dimeric VEGF-A 121
T1 construct: also called VEGF121
T1 sequence (looked up): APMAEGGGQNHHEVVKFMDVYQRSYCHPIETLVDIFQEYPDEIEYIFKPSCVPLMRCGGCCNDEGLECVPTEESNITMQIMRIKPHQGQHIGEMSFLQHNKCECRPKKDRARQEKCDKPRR

[2] = target: T1, VEGF-A 121 (Peprotech), dimeric; test: Biacore T200, 75 nM injected onto VEGF-A 121 displayed by and saturated with rH-4.6.1-IgG
[3] = target: T1, VEGF-A 121 (Peprotech), dimeric; test: SPR (Biacore T200), consecutive injections. VEGF-A 121 is displayed by captured rH-4.6.1-IgG (Avastin) and saturated again with rH-4.6.1-IgG. Setup as printed: rH-4.6.1-IgG*VEGF-A*rH4.6.1*Ab1*Ab2
Method: The sample buffer was the system buffer supplemented with 1 mg/ml CMD (Carboxymethyldextran, Sigma #86524). The system operated at 25° C.

- binding [1]: binds
- binding [2]: binds
- binding [3]: binds
B1: 13.2.5-F(ab')2-Bi (antibody, V domains shown)
VH: DVRLQESGPDLVKPSQSLSLTCTVTGYSITRAYNWHWIRQFPGNKLEWMGYILYSGTTDYNPSLKSRISFTRDTSKNQLILQLDSVTTDDTGTYYCARAGYDGGMDYWGQGVSVTVSS
VL: DIQMTQSPASLSASVGETVTITCGASENIYGGLTWYQRRRGKSPQLLIYGASNLADGMSSRFTGSGSGRQFSLKISGVHPDDVATYYCQNVFTTPYTFGGGTRLEIKR
